No constants are given. Whether binding was seen depends on the method and setting. Binding seen in cells or lysates may run through a third protein. Some binding calls cover weakened binding; strength is not graded here.
Biological target: T1, CNOT1 (UniProt A5YKK6 1-2376)
T1 construct: CNOT1, scaffold subunit of the CCR4-NOT deadenylase complex; Endogenous human CNOT1 of the SK-N-SH cells is precipitated by the anti-CNOT1 antibody as well; source: SK-N-SH, transfected (CNOT1 plasmid), in lysate
Test: co-IP; anti-CNOT1 antibody or control IgG, protein A/G magnetic beads; lysates of SK-N-SH cells 48 h after co-transfection with CNOT1 and either empty or AUF1-expressing plasmid; PLB lysis buffer (10 mM HEPES pH 7.0, 100 mM KCl, 5 mM MgCl2, 0.5% NP-40); washes in NT2 buffer with 250 mM NaCl; Western blot

Amino acid sequences for entries named in this document (tags omitted).
UniProt A5YKK6: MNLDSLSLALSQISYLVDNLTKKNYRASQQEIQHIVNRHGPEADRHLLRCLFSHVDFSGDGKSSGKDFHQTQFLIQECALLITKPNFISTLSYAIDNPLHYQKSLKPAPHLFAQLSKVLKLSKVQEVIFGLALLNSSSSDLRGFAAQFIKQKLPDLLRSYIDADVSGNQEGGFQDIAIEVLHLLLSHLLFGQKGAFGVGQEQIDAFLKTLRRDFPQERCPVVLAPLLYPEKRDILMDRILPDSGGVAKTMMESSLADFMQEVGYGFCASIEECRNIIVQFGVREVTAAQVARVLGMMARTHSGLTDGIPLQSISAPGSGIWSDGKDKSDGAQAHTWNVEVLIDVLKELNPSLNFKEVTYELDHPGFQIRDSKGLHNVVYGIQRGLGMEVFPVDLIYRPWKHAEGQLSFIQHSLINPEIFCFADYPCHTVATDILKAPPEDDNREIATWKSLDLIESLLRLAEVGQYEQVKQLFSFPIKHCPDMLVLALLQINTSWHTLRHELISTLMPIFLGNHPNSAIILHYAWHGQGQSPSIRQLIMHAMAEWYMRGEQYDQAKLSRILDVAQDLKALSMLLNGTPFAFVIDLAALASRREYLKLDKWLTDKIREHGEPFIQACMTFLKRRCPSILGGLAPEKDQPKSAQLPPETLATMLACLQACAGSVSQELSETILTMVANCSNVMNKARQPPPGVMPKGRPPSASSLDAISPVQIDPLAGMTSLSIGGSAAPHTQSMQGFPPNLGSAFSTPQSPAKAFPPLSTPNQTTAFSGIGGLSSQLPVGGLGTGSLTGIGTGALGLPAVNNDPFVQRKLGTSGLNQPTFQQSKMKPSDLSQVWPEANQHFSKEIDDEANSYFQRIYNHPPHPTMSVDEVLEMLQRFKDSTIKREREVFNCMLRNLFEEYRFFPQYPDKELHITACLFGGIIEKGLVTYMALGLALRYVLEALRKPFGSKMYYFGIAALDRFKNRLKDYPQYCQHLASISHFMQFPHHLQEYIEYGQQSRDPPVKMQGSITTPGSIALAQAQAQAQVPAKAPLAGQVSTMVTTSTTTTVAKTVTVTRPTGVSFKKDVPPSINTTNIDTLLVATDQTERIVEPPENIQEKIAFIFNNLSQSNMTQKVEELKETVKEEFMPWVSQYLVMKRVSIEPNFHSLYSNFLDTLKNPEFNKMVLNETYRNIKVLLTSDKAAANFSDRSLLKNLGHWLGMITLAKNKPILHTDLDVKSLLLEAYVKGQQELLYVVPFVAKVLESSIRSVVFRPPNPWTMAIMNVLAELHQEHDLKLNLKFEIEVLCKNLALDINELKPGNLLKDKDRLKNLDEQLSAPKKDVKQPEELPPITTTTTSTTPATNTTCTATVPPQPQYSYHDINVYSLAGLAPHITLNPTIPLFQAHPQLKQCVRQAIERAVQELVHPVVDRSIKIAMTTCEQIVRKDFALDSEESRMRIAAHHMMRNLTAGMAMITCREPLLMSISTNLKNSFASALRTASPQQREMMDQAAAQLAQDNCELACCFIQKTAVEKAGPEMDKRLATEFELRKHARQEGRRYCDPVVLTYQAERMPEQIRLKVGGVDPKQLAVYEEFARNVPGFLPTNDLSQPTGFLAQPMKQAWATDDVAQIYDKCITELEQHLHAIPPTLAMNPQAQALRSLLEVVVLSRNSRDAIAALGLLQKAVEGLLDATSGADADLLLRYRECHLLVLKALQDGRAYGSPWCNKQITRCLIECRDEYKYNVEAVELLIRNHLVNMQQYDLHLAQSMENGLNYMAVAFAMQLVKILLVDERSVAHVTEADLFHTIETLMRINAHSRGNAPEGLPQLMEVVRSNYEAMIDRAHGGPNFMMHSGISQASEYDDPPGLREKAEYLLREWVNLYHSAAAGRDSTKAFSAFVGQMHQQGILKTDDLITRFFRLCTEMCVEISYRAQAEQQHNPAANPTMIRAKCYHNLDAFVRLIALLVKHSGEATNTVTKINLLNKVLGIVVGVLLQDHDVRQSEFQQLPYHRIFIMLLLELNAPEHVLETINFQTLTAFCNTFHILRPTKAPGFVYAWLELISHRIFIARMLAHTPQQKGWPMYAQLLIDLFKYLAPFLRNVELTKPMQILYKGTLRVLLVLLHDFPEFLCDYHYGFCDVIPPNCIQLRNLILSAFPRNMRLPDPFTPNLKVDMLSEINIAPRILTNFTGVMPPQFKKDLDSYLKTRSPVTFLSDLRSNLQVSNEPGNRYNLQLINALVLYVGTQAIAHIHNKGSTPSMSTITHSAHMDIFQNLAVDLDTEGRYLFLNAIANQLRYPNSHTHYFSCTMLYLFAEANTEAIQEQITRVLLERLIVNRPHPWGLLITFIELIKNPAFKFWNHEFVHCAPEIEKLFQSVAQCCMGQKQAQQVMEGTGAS
UniProt P11940: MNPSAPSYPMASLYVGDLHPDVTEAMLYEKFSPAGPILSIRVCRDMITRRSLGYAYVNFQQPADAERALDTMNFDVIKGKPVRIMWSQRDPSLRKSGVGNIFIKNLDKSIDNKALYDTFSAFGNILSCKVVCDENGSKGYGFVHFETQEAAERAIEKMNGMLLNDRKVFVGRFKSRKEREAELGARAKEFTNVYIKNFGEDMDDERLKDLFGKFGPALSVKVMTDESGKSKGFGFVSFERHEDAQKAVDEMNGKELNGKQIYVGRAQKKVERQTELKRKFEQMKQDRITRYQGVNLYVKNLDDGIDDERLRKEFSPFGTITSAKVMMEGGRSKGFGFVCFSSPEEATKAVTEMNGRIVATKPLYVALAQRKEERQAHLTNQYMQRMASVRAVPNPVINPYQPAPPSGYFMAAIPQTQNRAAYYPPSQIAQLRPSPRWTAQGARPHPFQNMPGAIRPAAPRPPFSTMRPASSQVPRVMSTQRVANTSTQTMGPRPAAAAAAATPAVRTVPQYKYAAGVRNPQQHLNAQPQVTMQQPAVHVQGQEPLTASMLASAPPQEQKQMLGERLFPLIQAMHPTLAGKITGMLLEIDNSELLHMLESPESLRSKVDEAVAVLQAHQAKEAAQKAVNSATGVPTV

Substance: PABPC1 (from UniProt P11940 1-636)
- binding: binds
